# From the supplement of paper PMC8728848
# The list shows a part of the results.
# Tests used:
# Test in all cases: glycan array binding signal (z-score within array); higher = stronger binding
# Details in all cases: glycan notation: IUPAC condensed, linker removed
# [1] = target: Neu5Ac(a2-6)Gal(b1-4)GlcNAc(b1-2)Man(a1-6)[Man(a1-3)]Man(b1-4)GlcNAc(b1-4)GlcNAc
# Summary of the method: (§1)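 Negative Z-scores can be read as non-binding. The Z-score is calculated within each array and then averaged across arrays of one protein sequence at different concentrations or buffers and across linkers. Arrays, 3228 in all, were curated from the Consortium for Functional Glycomics database and kept only where the protein sequence was available.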
# [2] = target: Neu5Ac(a2-6)Gal(b1-4)GlcNAc(b1-3)Gal(b1-3)GlcNAc
# Summary of the method: as §1
# [3] = target: Neu5Ac(a2-6)Gal(b1-4)GlcNAc(b1-3)Gal(b1-4)GlcNAc
# Summary of the method: as §1
# [4] = target: Neu5Ac(a2-6)Gal(b1-4)GlcNAc(b1-3)Gal(b1-4)GlcNAc(b1-3)Gal(b1-4)GlcNAc
# Summary of the method: as §1
# [5] = target: Neu5Ac(a2-6)Gal(b1-4)GlcNAc(b1-3)Gal(b1-4)[Fuc(a1-3)]GlcNAc(b1-3)Gal(b1-4)[Fuc(a1-3)]GlcNAc
# Summary of the method: as §1
# [6] = target: Neu5Ac(a2-6)Gal(b1-4)GlcNAc(b1-3)GalNAc
# Summary of the method: as §1
# [7] = target: Neu5Ac(a2-6)Gal(b1-4)GlcNAc(b1-3)[Neu5Ac(a2-6)Gal(b1-4)GlcNAc(b1-6)]GalNAc
# Summary of the method: as §1
# [8] = target: Neu5Ac(a2-6)Gal(b1-4)GlcNAc(b1-6)GalNAc
# Summary of the method: as §1
# [9] = target: Neu5Ac(a2-6)Gal(b1-4)GlcNAc(b1-6)[Gal(b1-3)GlcNAc(b1-3)]Gal(b1-4)Glc
# Summary of the method: as §1
# [10] = target: Neu5Ac(a2-6)Gal(b1-4)GlcNAc6S
# Summary of the method: as §1
# [11] = target: Neu5Ac(a2-6)GalNAc
# Summary of the method: as §1
# [12] = target: Neu5Ac(a2-6)GalNAc(b1-4)GlcNAc
# Summary of the method: as §1
# [13] = target: Neu5Ac(a2-6)GalNAc(b1-4)GlcNAc6S
# Summary of the method: as §1
# [14] = target: Neu5Ac(a2-6)GlcNAc(b1-4)GlcNAc
# Summary of the method: as §1
# [15] = target: Neu5Ac(a2-6)GlcNAc(b1-4)GlcNAc(b1-4)GlcNAc
# Summary of the method: as §1
# [16] = target: Neu5Ac(a2-8)Neu5Ac
# Summary of the method: as §1
# [17] = target: Neu5Ac(a2-8)Neu5Ac(a2-3)Gal(b1-3)GalNAc(b1-4)[Neu5Ac(a2-8)Neu5Ac(a2-3)]Gal(b1-4)Glc
# Summary of the method: as §1
# [18] = target: Neu5Ac(a2-8)Neu5Ac(a2-3)Gal(b1-4)Glc
# Summary of the method: as §1
# [19] = target: Neu5Ac(a2-8)Neu5Ac(a2-3)[Gal(b1-3)GalNAc(b1-4)]Gal(b1-4)Glc
# Summary of the method: as §1
# [20] = target: Neu5Ac(a2-8)Neu5Ac(a2-3)[GalNAc(b1-4)]Gal(b1-4)Glc
# Summary of the method: as §1
# [21] = target: Neu5Ac(a2-8)Neu5Ac(a2-8)Neu5Ac
# Summary of the method: as §1
# [22] = target: Neu5Ac(a2-8)Neu5Ac(a2-8)Neu5Ac(a2-3)Gal(b1-4)Glc
# Summary of the method: as §1
# [23] = target: Neu5Ac(a2-8)Neu5Ac(a2-8)Neu5Ac(a2-3)[GalNAc(b1-4)]Gal(b1-4)Glc
# Summary of the method: as §1
# [24] = target: Neu5Ac(a2-8)Neu5Ac(a2-8)Neu5Ac(a2-8)Neu5Ac(a2-3)[GalNAc(b1-4)]Gal(b1-4)Glc
# Summary of the method: as §1
# [25] = target: Neu5Ac(b2-6)Gal(b1-4)GlcNAc
# Summary of the method: as §1
# [26] = target: Neu5Ac(b2-6)GalNAc
# Summary of the method: as §1
# [27] = target: Neu5Ac9Ac(a2-3)Gal(b1-3)GlcNAc
# Summary of the method: as §1
# [28] = target: Neu5Ac9Ac(a2-3)Gal(b1-4)GlcNAc
# Summary of the method: as §1
# [29] = target: Neu5Ac9Ac(a2-6)Gal(b1-4)GlcNAc
# Summary of the method: as §1
# [30] = target: Neu5Gc(a2-3)Gal(b1-3)GlcNAc
# Summary of the method: as §1
# [31] = target: Neu5Gc(a2-3)Gal(b1-3)[Fuc(a1-4)]GlcNAc
# Summary of the method: as §1
# [32] = target: Neu5Gc(a2-3)Gal(b1-4)Glc
# Summary of the method: as §1
# [33] = target: Neu5Gc(a2-3)Gal(b1-4)GlcNAc
# Summary of the method: as §1
# [34] = target: Neu5Gc(a2-3)Gal(b1-4)[Fuc(a1-3)]GlcNAc
# Summary of the method: as §1
# [35] = target: Neu5Gc(a2-6)Gal(b1-4)GlcNAc
# Summary of the method: as §1
# [36] = target: Neu5Gc(a2-6)GalNAc
# Summary of the method: as §1
# [37] = target: Neu5Gc(b2-6)Gal(b1-4)GlcNAc
# Summary of the method: as §1
binder,measurement,setting,value
Intelectin-1a (Mus musculus) (protein) AEWSHPQFEKAEENLDTNRWGNSFFSSLPRSCKEIKQEHTKAQDGLYFLRTKNGVIYQTFCDMTTAGGGWTLVASVHENNMRGKCTVGDRWSSQQGNRADYPEGDGNWANYNTFGSAEAATSDDYKNPGYFDIQAENLGIWHVPNKSPLHNWRKSSLLRYRTFTGFLQHLGHNLFGLYKKYPVKYGEGKCWTDNGPALPVVYDFGDARKTASYYSPSGQREFTAGYVQFRVFNNERAASALCAGVRVTGCNTEHHCIGGGGFFPEGNPVQCGDFASFDWDGYGTHNGYSSSRKITEAAVLLFYR,glycan array binding signal (z-score),[1],-0.534
same,glycan array binding signal (z-score),[2],0.123
same,glycan array binding signal (z-score),[3],-1.04
same,glycan array binding signal (z-score),[4],0.765
same,glycan array binding signal (z-score),[5],-0.773
same,glycan array binding signal (z-score),[6],-0.57
same,glycan array binding signal (z-score),[7],-0.797
same,glycan array binding signal (z-score),[8],0.847
same,glycan array binding signal (z-score),[9],-0.439
same,glycan array binding signal (z-score),[10],-0.302
same,glycan array binding signal (z-score),[11],-0.306
same,glycan array binding signal (z-score),[12],-0.624
same,glycan array binding signal (z-score),[13],0.868
same,glycan array binding signal (z-score),[14],-0.053
same,glycan array binding signal (z-score),[15],-0.544
same,glycan array binding signal (z-score),[16],-1.09
same,glycan array binding signal (z-score),[17],-1.3
same,glycan array binding signal (z-score),[18],0.434
same,glycan array binding signal (z-score),[19],-1.14
same,glycan array binding signal (z-score),[20],-0.791
same,glycan array binding signal (z-score),[21],0.231
same,glycan array binding signal (z-score),[22],-0.483
same,glycan array binding signal (z-score),[23],0.726
same,glycan array binding signal (z-score),[24],0.079
same,glycan array binding signal (z-score),[25],-0.753
same,glycan array binding signal (z-score),[26],0.517
same,glycan array binding signal (z-score),[27],-1.63
same,glycan array binding signal (z-score),[28],-1.31
same,glycan array binding signal (z-score),[29],-0.95
same,glycan array binding signal (z-score),[30],0.012
same,glycan array binding signal (z-score),[31],-1.1
same,glycan array binding signal (z-score),[32],0.613
same,glycan array binding signal (z-score),[33],-1.06
same,glycan array binding signal (z-score),[34],0.726
same,glycan array binding signal (z-score),[35],0.855
same,glycan array binding signal (z-score),[36],-0.33
same,glycan array binding signal (z-score),[37],0.206
